These results are taken from US20160377635A1, “Measurement of Oxytocin and Vasopressin” (Martin-Protean LLC, priority 2013, published 2016).

SMILES strings stand for the structures.

The nature of this series: plasma oxytocin and vasopressin by LC-MS/MS, with or without redox perturbation. Further details: species or system human.

Take `NC(=O)CC[C@@H]1NC(=O)[C@H](Cc2ccccc2)NC(=O)[C@H](Cc2ccc(O)cc2)NC(=O)[C@@H](N)CSSC[C@@H](C(=O)N2CCC[C@H]2C(=O)N[C@@H](CCCN=C(N)N)C(=O)NCC(N)=O)NC(=O)[C@H](CC(N)=O)NC1=O` [vasopressin]: the “endogenous level in whole plasma by LC-MS/MS” value (plasma not perturbed) is “undetectable” and the “endogenous level in whole plasma by LC-MS/MS” value (redox perturbed sample) is given as “nM levels”.
